Measured values reported in patent US20240043837.
For at least one entry, the source does not settle the construct or the ends of the probe.

Molecular target: Transferrin receptor extracellular domain (TfR, hTfR1) (UniProt P02786)
Assay: SELEX
Settings: 2'-F U and 2'-F C; clone from pool after 12 rounds; 30 mM Tris-HCl, 150 mM NaCl, 1.5 mM MgCl2, 2 mM DTT, 1% BSA, room temperature; no affinity given; purified recombinant protein

**Q.** Which selection result does the source give for “GGGAGACAAGAAUAAACGCUCAAUGCGUUCACGUUUAUUCACAUUUUUGAAUUGAGCAUGAGCUUCGACAGGAGGCUCACAACAGGC [TR14]” here?
**A.** selected
